Laboratory results taken from PubChem BioAssay AID1347423 (Functional Genomics Laboratory (NCATS/FGL), 2020).
Among all 52,000 sequences or so, about 210 (0.4%) were called active.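 Rule for the calls: active = gene whose silencing raises cell survival under the drug, median off-target-corrected z-score across its silencing RNAs 2 or more; inactive = the rest.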 Some of the results follow.

Test: Resistance to Poly (ADP-Ribose) Polymerase inhibitor: Gene Identification via Genome-wide siRNA Screen
Details: mouse BRCA2 R2336H ES cells, olaparib, CellTiter-Glo viability; hits give high values
Method in brief: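 Mouse BRCA2 R2336H ES cells were reverse-transfected with siRNA (20 nM final), treated at 48 h with 500 nM olaparib, and read by CellTiter-Glo after 72 h. Scores: MAD-based z per siRNA, median per gene, seed off-target correction.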

Row | Sequence | z-score
1 | GGAUCACAGAAGGUCCCUATT against Nox4 | inactive: -0.969
2 | GGGACACACCAUCAAAAGGTT against BC060737 | inactive: 1.26
3 | GGAAAAGAUCAGAGAAUACTT against Hnrpab | inactive: 1.89
4 | CCUAGGCACAGCUUUGUAUTT against Apof | inactive: -1.06
5 | GGCAAUUCAAACAAUGCAGTT against Orm1 | inactive: 0.362
6 | CCAAAAUUCGAACAAGUGATT against Mat2b | inactive: -0.549
7 | GGUUCCUUACGAUGUGUCATT against Nsg1 | inactive: -0.398
8 | CCUGGUGCCUUUAUCUACCTT against Ctxn | inactive: -0.988
9 | GGAGAAAUUCCCUUGCCACTT against 4933428M03Rik | inactive: 0.443
10 | GGUGUCUGGAGGGAGAUUUTT against 6030441F14Rik | inactive: -1
11 | GGACCCAAGAAGUUUUAUUTT against BC050789 | inactive: 1.61
12 | GGCCAAGGAUCCAUCUGUATT against Magee1 | inactive: -0.0847
13 | GCCUUUGAGUUUUUCAUGUTT against Olfr314 | inactive: -0.693
14 | GUGAGAAGUUGUGUAGAGCTT against 1110001J03Rik | inactive: 0.783
15 | GGCUCUGUGUUGGUAAUGATT against C030002N13Rik | inactive: 0.844
16 | GGAGCAGAUGGUUUUCGAGTT against Copz2 | inactive: -0.486
17 | UUCCUUUUCUUCAUGCUUUTT against Olfr104 | inactive: 0.416
18 | GGAUGUACCCUACUUGCUATT against BC025206 | inactive: 0.519
19 | GGGUUUUCUUUCUUUCUCUTT against Otub1 | inactive: 0.535
20 | GCUGUGGAGUCAAGAACAGTT against Zfp75 | inactive: -0.936
21 | GGCAAACCGACAGACUUCUTT against Riok1 | inactive: -0.0278
22 | GGUACAGACCUUUGAAAUATT against Apobec2 | inactive: 0.347
23 | GGAGCUUCUGACUAAUUAUTT against Srisnf2l | inactive: -2.29
24 | GGAUCCUAUAUGUUCUUUGTT against Cabp2 | inactive: -0.709
25 | GGUUCGACUUUCUUUGCCATT against 2810409H07Rik | inactive: 0.574
26 | GGGAUUUGUGAUUGAACUGTT against 2510002A14Rik | inactive: 0.376

Quoted from the listing.
Value for GGUACAGACCUUUGAAAUATT against Apobec2 under z-score: inactive: 0.347
Value for GGCAAUUCAAACAAUGCAGTT against Orm1 under z-score: inactive: 0.362
Value for GGAAAAGAUCAGAGAAUACTT against Hnrpab under z-score: inactive: 1.89
Value for GGUUCCUUACGAUGUGUCATT against Nsg1 under z-score: inactive: -0.398
Value for CCAAAAUUCGAACAAGUGATT against Mat2b under z-score: inactive: -0.549
Value for GUGAGAAGUUGUGUAGAGCTT against 1110001J03Rik under z-score: inactive: 0.783

(list continues)

Row | Sequence | z-score
27 | GGAACACAAAUUGUGCUUATT against Zfp462 | inactive: 0.708
28 | GGCUGACAAGAGAUUUAAATT against 4930430F08Rik | inactive: -0.291
29 | GGUUAUAGCAUCCUUAACUTT against Hspc171 | inactive: -0.104
30 | GGAUGGACUCUGUUCCUGUTT against Susd2 | inactive: 0.297
31 | GGUACGAGCUGUUCGCCAUTT against D330013L20Rik | inactive: 0.966
32 | GGACGUAGCUAUGGAGGAUTT against 1810009A15Rik | inactive: -0.583
33 | GCAGGAUCAGCUGUUCACATT against BC037651 | inactive: -1.4
34 | CCUAAUUUCCUAGAUCUUCTT against Gm604 | inactive: 0.279
35 | GGAUCUGGGAAUCACCUCUTT against Trpv6 | inactive: -0.178
36 | GCUAAAGAACGGUAUAUCGTT against Agxt2 | inactive: 0.849
37 | GGAAUCCAGAACUUGAUCGTT against Mfn1 | inactive: -0.149
38 | GGAAAGCAUGUUGUACUUATT against BC006662 | inactive: 0.473
39 | GCCGCCAGUACUAUUCUAUTT against 4930521E07Rik | inactive: -0.384
40 | GCGGUGUAAACAGAUGGAGTT against Apg3l | inactive: 0.302
41 | GCCUUGCCCUGACUAUGUUTT against Paqr3 | inactive: -0.724
42 | GGAGCCCUAUACAGGGUUUTT against Tusc5 | inactive: -1.48
43 | GCUCGUGUACCUCUAUCUGTT against Ap2b1 | inactive: -0.341
44 | GGACAAGGUCUUUAAUGUUTT against Fbxo3 | inactive: 0.0569
45 | GCCAGAACAGAAUCCAGGGTT against Sftpb | inactive: -0.669
46 | GGGUCUUUCCAUCUACCUCTT against Magel2 | inactive: -0.407
47 | GGCUACCCUUUUGAACCUCTT against Psmd3 | inactive: -2.83
48 | GGGUCUAGAGUGCAUCUUCTT against Kb40 | inactive: -0.264
49 | GGAAGUACUAUUACUGGACTT against Epha7 | inactive: 0.162
50 | CCGUAUUUGUGCUGUGUCUTT against Olfr275 | inactive: -0.00585
51 | GGAAGUAUGUCCAGUCAUATT against Ifit3 | inactive: 0.104
52 | GGUCCACAAGUUCAUCGUCTT against Rpa1 | inactive: -3.54

Two entries from above in a different format:
Row,Sequence,z-score
34,CCUAAUUUCCUAGAUCUUCTT against Gm604,inactive: 0.279
37,GGAAUCCAGAACUUGAUCGTT against Mfn1,inactive: -0.149

The list goes on.

Row | Sequence | z-score
53 | GGUGCUACUGGAAGAAGGGTT against Ubl4 | inactive: -0.151
54 | GGUGUUUUACAUAUCGUAATT against Usp49 | inactive: 0.192
55 | GGUAUCUUCUCUUGGAAAATT against Tex12 | inactive: -0.489
56 | CGUGACCAACAUGAUACUUTT against Farsla | inactive: -0.891
57 | GGAAUUGGCAACAUAAAAATT against Vldlr | inactive: 1.02
58 | GGUGAAAGUACUGAGGAAGTT against Rnf12 | inactive: -1.52
59 | GGCAAAUUUGGAAACGUGUTT against Aurkb | inactive: -0.249
60 | GCACAAUGGUGUUAAGUCATT against Gm237 | inactive: -0.478
61 | CCUUCUCCUCGUGCAAGUATT against Cort | inactive: -2.1
62 | GCCUUGUCUUCCUUCAGUGTT against Sprr2a | inactive: -1.08
63 | CGAGGUGAAGGAUUACACCTT against 1810049K24Rik | inactive: 0.282
64 | GGUGGCACUCUUUCAGAUCTT against 6030446I19Rik | inactive: 0.179
65 | GGUAAUAAACGGUAAAUUGTT against B430306N03Rik | inactive: 1.28
66 | GGAUGAAGGAACUAAAUAUTT against Cog3 | inactive: -2.67
67 | CCAAUGUCAAGCAACUUCATT against Arnt2 | inactive: 0.00418
68 | CCUUAUCUCUACCAUCGGUTT against Hyal2 | inactive: -0.274
69 | GCAACAUUAGGAUUUAUAGTT against 1110032E23Rik | inactive: -0.366
70 | GCCAUAAUGCUAUUGUUCATT against Cacna1b | inactive: -0.324
71 | CCAAUUACGGACUGUGUGUTT against Wfdc2 | inactive: -0.229
72 | GGCUAGCUGCCCUUGUAUATT against 2810021O14Rik | inactive: -0.00766
73 | GCGACAAAUGUAGCCCUUGTT against Mrpl36 | inactive: -2.53
74 | CCAUUGUUCCAUUCUAAGUTT against Sema7a | inactive: 1.34
75 | CCCAAUCCUCCCAUGUUUCTT against Usp22 | inactive: -0.137
76 | GGUUCUCUAACAGAACUUUTT against 4631426G04Rik | inactive: 0.696
77 | GGAUGUACUGAGUAGCUUUTT against Nical | inactive: -1.08
78 | CCACCAAAGGAGAAAGAGATT against Tcea3 | inactive: -2.78

Row | Sequence | z-score
79 | GUCAGAAAGAGAAGCUCGATT against Rps28 | inactive: -3.23
80 | GACUGGAUUUUAGUUCAUUTT against A130014H13Rik | inactive: -1.46
81 | GGCCCUCUACAAUAUCGUCTT against D8Wsu151e | inactive: 0.171
82 | CCUAUAUUUUCAAAGAUGGTT against Gstm1 | inactive: 1.98
83 | CCCGGAAACAACACAUUGCTT against Tyrobp | inactive: 0.506
84 | GGAAUUAUUCAUGACACAGTT against Hspa9a | inactive: -2.55
85 | GGAGGUGCAGAAAAUCAUCTT against BC037703 | inactive: -0.187
86 | GGCUUUCCUUCGGAAGAAUTT against Abca14 | inactive: 0.571
87 | GGGCCCAGAUUUCAAUGGGTT against Car14 | inactive: -0.343
88 | GGAUUUAGAUCACUUGGAGTT against 2010300G19Rik | inactive: 0.11
89 | CGGAAAGCAUUAAAGCUAUTT against Bbs7 | inactive: 0.179
90 | GCAGAAAAACGUGAACAUUTT against LOC13909 | inactive: -2.47
91 | GGAGCUGUUUUUCCACUCCTT against Phlda2 | inactive: 2.16
92 | GGUAAACUGCUCAAGAUGUTT against Ceacam12 | inactive: 1.4
93 | GGGAAUAAUGUCUAGUUUGTT against Drctnnb1a | inactive: 0.175
94 | GGACGACAAGGACUUCACGTT against Kcna1 | inactive: 0.264
95 | GGUAUUUGUUAGGCCACAGTT against Svp2 | inactive: 0.184
96 | GGGCUUAUGGAGUUGUAAATT against Avpi1 | inactive: 0.66
97 | GGAGAAGCUCUUAAAGAAATT against 6030423D04Rik | inactive: -1.1
98 | GGAUGAGAACUACAUGAUCTT against Card10 | inactive: 0.324
99 | GGAAAAUUUGCUGUGGUUATT against Stk17b | inactive: 1.25
100 | GCUUAGGAGAAAGAGCAAUTT against Gpr139 | inactive: 1.74
101 | GCUUAACCUCAGAGAUGAUTT against Mbip | inactive: -1.9
102 | GGACUGCAUCUUUAAAGAATT against A230062G08Rik | inactive: -0.75
103 | CCAUUAUGAGUAUAGUUGCTT against 1810045K17Rik | inactive: 0.0923
104 | GCAGUUAAUACUUACCGCGTT against A430057M04Rik | inactive: 0.356
